Article PMC6216108 (International Journal for Parasitology: Drugs and Drug …, 2018)

The chains behind the UniProt entries cited, without tags or fusion partners. Where a name states a change or a piece, a line headed by the entry shows the natural chain unless it says otherwise.
UniProt E9AFX2: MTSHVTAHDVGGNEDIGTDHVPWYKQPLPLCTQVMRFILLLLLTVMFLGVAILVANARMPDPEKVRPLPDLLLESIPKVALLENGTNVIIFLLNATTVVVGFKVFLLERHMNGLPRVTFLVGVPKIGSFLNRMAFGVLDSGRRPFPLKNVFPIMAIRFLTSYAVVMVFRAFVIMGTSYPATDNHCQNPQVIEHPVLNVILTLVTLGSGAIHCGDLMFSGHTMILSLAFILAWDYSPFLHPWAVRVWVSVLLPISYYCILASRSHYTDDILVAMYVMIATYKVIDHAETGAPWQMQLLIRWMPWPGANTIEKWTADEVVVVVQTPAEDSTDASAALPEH

Molecular target: L. major IPC synthase (inositolphosphorylceramide synthase, LmjFIPCS) (Leishmania major, UniProt E9AFX2)
Assay: biochemical

CC/C(=C(\c1ccccc1)c1ccc(OCCN(C)C)cc1)c1ccccc1 [Tamoxifen]
IC50: 8.48 µM
